Measurements: PMC4172637

Sequences of proteins named here, by UniProt entry; tags and fusion partners are left off.
UniProt Q24572: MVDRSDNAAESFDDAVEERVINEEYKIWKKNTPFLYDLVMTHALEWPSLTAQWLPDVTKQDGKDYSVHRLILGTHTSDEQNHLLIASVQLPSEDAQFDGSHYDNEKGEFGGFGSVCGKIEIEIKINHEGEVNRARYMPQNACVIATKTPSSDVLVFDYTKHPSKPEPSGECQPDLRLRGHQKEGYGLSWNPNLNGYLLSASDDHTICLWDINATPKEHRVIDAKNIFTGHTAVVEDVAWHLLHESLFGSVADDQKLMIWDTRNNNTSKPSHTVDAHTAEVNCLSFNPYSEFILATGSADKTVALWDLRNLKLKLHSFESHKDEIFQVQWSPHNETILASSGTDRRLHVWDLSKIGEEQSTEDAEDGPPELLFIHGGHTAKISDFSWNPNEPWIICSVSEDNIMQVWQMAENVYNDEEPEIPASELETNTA

Key:
FLAG-dCTCF (Drosophila) = biological target: T1, FLAG-dCTCF (Drosophila) (UniProt Q9VS55); test: affinity purification with mass spectrometry; FLAG-M2 immunopurification of FLAG-dCTCF or FLAG-CP190 from nuclear extract of stably transfected S2 cells; washes 20 mM Tris-HCl pH 7.5, 100 mM NaCl, 0.25% NP-40; TCA precipitation, SDS-PAGE, mass spectrometry
T1 sequence: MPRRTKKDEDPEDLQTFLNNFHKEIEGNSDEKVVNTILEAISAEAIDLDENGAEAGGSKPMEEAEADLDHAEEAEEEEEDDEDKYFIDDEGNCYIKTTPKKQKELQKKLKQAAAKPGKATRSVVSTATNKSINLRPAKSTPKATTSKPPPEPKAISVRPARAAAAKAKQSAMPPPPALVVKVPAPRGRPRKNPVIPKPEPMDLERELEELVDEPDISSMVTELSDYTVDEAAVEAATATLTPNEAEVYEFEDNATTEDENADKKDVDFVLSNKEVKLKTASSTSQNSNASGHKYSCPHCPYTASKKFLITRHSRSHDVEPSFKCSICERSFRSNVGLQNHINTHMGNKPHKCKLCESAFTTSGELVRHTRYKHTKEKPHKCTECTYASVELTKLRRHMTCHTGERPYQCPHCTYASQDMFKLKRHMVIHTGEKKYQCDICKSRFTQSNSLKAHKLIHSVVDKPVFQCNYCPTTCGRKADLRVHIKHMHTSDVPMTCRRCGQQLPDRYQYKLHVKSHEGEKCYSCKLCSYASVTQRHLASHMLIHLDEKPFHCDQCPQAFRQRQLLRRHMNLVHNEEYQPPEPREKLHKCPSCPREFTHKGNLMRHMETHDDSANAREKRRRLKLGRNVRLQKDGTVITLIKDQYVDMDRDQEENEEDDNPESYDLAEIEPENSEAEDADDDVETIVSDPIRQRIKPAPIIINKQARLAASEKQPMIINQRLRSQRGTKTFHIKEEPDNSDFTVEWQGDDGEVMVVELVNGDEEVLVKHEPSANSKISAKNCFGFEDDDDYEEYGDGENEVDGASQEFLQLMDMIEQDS

FLAG-CP190 (Drosophila) = biological target: T2, FLAG-CP190 (Drosophila) (UniProt Q24478); test: as above
T2 sequence: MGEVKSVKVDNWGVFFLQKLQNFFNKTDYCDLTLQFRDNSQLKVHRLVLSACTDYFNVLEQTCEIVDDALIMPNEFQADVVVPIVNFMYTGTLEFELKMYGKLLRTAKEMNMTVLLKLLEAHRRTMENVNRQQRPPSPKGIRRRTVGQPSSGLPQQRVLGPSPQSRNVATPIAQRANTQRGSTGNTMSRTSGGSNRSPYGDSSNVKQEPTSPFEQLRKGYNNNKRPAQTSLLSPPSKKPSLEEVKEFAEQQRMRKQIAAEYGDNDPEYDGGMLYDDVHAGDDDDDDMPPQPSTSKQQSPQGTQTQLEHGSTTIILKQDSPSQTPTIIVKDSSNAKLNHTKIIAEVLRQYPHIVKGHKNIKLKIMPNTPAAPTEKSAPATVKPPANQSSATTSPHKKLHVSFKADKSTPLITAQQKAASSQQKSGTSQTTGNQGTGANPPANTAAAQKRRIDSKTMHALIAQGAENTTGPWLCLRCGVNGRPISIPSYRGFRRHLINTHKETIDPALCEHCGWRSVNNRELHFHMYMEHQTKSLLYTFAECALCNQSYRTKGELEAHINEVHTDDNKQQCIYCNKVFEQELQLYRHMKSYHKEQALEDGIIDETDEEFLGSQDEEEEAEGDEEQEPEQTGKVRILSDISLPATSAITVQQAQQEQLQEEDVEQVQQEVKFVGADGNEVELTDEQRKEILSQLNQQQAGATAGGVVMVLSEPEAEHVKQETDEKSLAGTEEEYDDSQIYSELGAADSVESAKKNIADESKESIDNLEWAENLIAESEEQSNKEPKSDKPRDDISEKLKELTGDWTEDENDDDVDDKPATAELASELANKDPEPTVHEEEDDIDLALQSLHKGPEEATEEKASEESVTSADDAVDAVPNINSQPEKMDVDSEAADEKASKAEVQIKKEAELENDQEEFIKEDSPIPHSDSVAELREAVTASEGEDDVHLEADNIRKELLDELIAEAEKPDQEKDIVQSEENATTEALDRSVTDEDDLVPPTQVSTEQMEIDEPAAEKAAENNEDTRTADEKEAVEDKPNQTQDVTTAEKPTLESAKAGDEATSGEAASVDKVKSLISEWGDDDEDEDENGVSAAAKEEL

binding (FLAG-dCTCF (Drosophila)): binds | binding (FLAG-CP190 (Drosophila)): binds
Substance: CAF-1/p55 (from UniProt Q24572 1-430)

Results are given in words; binding and its absence hold for the method and conditions named. In cells and extracts the contact can be indirect. A yes stands for co-enrichment or nearness to the bait. Other partners may have been found. Tags and fused reporters may be left off the sequences shown.
